Results are given in words; binding and its absence hold for the method and conditions named. Binding seen in cells or lysates may run through a third protein. A yes stands for co-enrichment or nearness to the bait. Other partners may have been found.

By UniProt entry, the sequences of proteins in these tests, tags left out.
UniProt Q96SW2: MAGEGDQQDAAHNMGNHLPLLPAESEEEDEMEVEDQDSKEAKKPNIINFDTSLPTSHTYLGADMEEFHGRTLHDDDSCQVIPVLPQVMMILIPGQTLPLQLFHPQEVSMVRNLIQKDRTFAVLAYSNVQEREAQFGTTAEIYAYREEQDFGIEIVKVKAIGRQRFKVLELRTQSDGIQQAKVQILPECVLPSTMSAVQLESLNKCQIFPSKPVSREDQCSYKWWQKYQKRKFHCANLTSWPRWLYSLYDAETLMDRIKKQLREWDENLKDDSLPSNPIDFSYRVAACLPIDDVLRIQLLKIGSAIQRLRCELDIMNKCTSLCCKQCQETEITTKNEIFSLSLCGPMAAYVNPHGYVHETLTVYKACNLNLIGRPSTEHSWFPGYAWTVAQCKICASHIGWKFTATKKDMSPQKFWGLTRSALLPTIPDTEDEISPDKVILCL
UniProt Q13619: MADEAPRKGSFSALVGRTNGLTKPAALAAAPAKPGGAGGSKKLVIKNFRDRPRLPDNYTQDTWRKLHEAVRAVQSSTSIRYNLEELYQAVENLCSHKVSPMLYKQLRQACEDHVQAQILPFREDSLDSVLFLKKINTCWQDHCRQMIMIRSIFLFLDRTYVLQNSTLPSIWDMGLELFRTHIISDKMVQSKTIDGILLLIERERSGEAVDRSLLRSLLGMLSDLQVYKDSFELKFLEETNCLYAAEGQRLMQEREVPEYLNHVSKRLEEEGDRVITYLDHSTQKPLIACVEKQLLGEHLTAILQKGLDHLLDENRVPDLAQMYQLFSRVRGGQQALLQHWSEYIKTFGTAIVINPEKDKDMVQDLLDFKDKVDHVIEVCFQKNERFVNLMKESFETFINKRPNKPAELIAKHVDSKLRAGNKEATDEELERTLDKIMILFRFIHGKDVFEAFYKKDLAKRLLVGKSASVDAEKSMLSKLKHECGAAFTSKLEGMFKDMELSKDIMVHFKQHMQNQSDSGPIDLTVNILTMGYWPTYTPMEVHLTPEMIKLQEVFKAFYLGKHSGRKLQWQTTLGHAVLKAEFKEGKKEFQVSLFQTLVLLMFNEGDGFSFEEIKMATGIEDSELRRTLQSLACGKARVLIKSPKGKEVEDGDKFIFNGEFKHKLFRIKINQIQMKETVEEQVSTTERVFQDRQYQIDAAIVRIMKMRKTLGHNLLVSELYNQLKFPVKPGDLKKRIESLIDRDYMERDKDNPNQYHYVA
UniProt Q13620: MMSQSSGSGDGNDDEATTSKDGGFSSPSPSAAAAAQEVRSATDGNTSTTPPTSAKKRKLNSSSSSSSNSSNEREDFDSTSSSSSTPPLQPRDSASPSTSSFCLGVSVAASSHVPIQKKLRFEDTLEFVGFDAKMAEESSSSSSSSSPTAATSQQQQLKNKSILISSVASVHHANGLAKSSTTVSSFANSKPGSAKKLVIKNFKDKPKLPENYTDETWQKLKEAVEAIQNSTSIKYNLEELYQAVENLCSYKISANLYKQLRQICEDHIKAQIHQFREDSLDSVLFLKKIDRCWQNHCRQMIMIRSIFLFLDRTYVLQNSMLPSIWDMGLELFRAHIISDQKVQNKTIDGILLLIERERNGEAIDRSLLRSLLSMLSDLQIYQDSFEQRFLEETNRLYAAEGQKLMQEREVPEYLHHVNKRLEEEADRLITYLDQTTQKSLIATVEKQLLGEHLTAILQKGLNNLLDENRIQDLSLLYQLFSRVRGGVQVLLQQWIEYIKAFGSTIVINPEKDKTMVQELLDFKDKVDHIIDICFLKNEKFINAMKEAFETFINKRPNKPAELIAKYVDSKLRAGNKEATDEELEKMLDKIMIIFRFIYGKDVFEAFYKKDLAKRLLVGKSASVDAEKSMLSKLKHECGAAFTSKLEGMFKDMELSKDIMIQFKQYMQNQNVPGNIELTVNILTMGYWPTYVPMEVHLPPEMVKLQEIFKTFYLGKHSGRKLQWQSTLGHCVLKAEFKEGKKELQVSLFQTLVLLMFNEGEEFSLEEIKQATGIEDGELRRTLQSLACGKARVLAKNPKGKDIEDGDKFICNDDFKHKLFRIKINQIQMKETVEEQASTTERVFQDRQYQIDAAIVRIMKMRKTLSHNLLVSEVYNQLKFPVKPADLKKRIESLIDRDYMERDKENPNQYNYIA

This assay addresses Flag-CRBN (cereblon) (UniProt Q96SW2). The assay is described as follows: affinity purification with mass spectrometry.

For the substance “Cullin-4A (CUL4A) (from UniProt Q13619 1-759)”, the binding result is recorded as “binds”. The value for “Cullin-4B (CUL4B) (from UniProt Q13620 1-913)” was “binds”.

These data come from doi:10.1101/2021.07.12.452075.
